Binding data for 4 molecules are collected here from paper PMC8789201.

Chains of the proteins cited; added tags and fusions are not shown.
UniProt P63104: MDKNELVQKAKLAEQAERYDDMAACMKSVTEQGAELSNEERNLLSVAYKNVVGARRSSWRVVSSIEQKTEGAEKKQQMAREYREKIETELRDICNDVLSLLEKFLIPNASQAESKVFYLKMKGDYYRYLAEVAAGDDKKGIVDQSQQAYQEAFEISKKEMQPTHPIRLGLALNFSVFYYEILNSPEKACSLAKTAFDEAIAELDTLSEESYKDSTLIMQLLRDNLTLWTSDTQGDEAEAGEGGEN

Results are given in words; binding and its absence hold for the method and conditions named. Binding seen in cells or lysates may run through a third protein. Here binding means that the protein was enriched with, or labelled near, the bait; the list need not be complete. For some of these results: No binding means not detected with the bait. For some of these results: Tags and fused reporters may be left off the sequences shown.

For experiment [1], the target named is T1, OST-tagged SLP76 (SLP-76^OST) (human) (UniProt Q13094).
T1 sequence: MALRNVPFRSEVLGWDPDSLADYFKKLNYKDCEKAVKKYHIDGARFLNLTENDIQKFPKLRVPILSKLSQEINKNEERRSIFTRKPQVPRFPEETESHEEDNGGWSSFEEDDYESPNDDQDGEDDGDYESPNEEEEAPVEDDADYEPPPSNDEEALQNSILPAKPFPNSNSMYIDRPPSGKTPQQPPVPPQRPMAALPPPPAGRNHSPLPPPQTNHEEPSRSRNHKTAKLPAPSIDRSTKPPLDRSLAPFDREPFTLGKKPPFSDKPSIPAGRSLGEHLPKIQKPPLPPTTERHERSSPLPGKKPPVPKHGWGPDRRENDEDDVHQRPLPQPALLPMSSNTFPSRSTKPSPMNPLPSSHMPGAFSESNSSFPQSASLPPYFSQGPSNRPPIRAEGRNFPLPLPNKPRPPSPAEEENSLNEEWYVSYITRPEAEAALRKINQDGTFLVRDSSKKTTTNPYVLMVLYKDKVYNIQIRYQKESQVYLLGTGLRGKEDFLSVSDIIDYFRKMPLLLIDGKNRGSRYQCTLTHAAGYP
The experiment is described as follows: affinity purification with mass spectrometry; OST-tagged bait in n-dodecyl-β-D-maltoside lysates of expanded primary human CD8+ T cells, unstimulated or stimulated with anti-CD3 plus anti-CD28 for 30, 60, 120 and 300 s; captured on Strep-Tactin Sepharose, eluted with D-biotin, LC-MS/MS; compared with control cells.

Experiment [2] addresses T1, OST-tagged SLP76 (SLP-76^OST) (human). Nature of the experiment: affinity purification with mass spectrometry; SLP-76^OST CD4+ T cells preincubated 45 min at 37°C with dasatinib (100 nM), kept until lysis; stimulated with anti-CD3 plus anti-CD28; Strep-Tactin purification, LC-MS/MS; vehicle (DMSO) in parallel.
The target is the same in experiment [3]. The experiment is described as follows: affinity purification with mass spectrometry; OST-tagged bait in n-dodecyl-β-D-maltoside lysates of expanded primary human CD4+ T cells, unstimulated or stimulated with anti-CD3 plus anti-CD28 for 30, 60, 120 and 300 s; captured on Strep-Tactin Sepharose 1.5 h at 4°C, eluted with 2.5 mM D-biotin, LC-MS/MS; compared with mock-edited control cells.

The target of experiment [4] is T2, VAV1^OST (human) (UniProt P15498).
T2 sequence: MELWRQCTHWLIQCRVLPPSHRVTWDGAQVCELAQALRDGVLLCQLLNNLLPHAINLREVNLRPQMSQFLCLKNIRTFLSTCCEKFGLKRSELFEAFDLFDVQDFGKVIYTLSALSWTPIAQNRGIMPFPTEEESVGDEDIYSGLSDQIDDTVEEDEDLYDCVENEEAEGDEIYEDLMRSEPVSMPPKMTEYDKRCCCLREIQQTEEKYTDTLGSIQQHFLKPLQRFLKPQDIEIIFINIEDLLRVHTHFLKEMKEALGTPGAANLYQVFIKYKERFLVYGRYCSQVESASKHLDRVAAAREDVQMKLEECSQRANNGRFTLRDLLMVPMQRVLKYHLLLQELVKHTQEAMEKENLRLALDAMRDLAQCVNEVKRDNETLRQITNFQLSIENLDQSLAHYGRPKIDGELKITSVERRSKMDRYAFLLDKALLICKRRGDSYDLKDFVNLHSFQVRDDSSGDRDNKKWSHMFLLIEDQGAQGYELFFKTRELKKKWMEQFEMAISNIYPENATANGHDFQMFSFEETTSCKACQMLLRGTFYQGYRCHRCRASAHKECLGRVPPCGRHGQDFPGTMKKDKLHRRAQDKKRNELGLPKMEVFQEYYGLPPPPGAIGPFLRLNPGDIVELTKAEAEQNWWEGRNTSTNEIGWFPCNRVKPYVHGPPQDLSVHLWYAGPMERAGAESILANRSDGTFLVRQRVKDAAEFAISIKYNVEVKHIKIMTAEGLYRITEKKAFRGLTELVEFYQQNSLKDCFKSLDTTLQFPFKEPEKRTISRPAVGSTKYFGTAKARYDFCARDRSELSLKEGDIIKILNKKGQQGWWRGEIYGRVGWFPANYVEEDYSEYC
The experiment is described as above.

As to 14-3-3 ζ (from UniProt P63104 1-245), the values for the binding entry in experiment [1], in experiment [2] and in experiment [3] were “binds”, “no binding (only with dasatinib (100 nM))” and “binds”, respectively.

B1: VAV1, endogenous (protein, UniProt P15498 1-845)
chain: T2 sequence
Regarding B1, the binding result in experiment [1] is listed as “binds”; in experiment [2] it was “no binding (only with dasatinib (100 nM))”; in experiment [3] it was “binds”.

B2: SLP-76, endogenous (protein, UniProt Q13094 1-533)
chain: T1 sequence
Turning to B2, the binding entry in experiment [4] was “binds”.

B3: transmembrane receptor CD6 (receptor, UniProt P30203 18-668)
chain: HPSPAPPDQLNTSSAESELWEPGERLPVRLTNGSSSCSGTVEVRLEASWEPACGALWDSRAAEAVCRALGCGGAEAASQLAPPTPELPPPPAAGNTSVAANATLAGAPALLCSGAEWRLCEVVEHACRSDGRRARVTCAENRALRLVDGGGACAGRVEMLEHGEWGSVCDDTWDLEDAHVVCRQLGCGWAVQALPGLHFTPGRGPIHRDQVNCSGAEAYLWDCPGLPGQHYCGHKEDAGAVCSEHQSWRLTGGADRCEGQVEVHFRGVWNTVCDSEWYPSEAKVLCQSLGCGTAVERPKGLPHSLSGRMYYSCNGEELTLSNCSWRFNNSNLCSQSLAARVLCSASRSLHNLSTPEVPASVQTVTIESSVTVKIENKESRELMLLIPSIVLGILLLGSLIFIAFILLRIKGKYALPVMVNHQHLPTTIPAGSNSYQPVPITIPKEVFMLPIQVQAPPPEDSDSGSDSDYEHYDFSAQPPVALTTFYNSQRHRVTDEEVQQSRFQMPPLEEGLEELHASHIPTANPGHCITDPPSLGPQYHPRSNSESSTSSGEDYCNSPKSKLPPWNPQVFSSERSSFLEQPPNLELAGTQPAFSAGPPADDSSSTSSGEWYQNFQPPPQPPSEEQFGCPGSPSPQPDSTDNDDYDDISAA
For B3, the binding result in experiment [1] is “binds”; in experiment [2] it was “no binding (only with dasatinib (100 nM))”; in experiment [3] it was “binds”.
